These are yes or no findings as the source states them, for the method shown. Some results given as binding are weak or reduced against the parent protein; the word gives no strength.
Biological target: T1, MTMR3-uORF-peptide (human)
T1 sequence (peptide): MLLWL
Experiment: peptide or protein array; PRISMA, second screen: 221 peptides of 3-15 aa in full length and four SOS1/GLUT1 control peptides spot-synthesized on a cellulose membrane, incubated with HEK293T lysate; bound proteins by LC-MS/MS with LFQ, each peptide against all other peptides; cutoff c = 6, x0 = 2.8; triplicates; only the target purified

Amino acid sequences for entries named in this document (tags omitted).
UniProt P53675: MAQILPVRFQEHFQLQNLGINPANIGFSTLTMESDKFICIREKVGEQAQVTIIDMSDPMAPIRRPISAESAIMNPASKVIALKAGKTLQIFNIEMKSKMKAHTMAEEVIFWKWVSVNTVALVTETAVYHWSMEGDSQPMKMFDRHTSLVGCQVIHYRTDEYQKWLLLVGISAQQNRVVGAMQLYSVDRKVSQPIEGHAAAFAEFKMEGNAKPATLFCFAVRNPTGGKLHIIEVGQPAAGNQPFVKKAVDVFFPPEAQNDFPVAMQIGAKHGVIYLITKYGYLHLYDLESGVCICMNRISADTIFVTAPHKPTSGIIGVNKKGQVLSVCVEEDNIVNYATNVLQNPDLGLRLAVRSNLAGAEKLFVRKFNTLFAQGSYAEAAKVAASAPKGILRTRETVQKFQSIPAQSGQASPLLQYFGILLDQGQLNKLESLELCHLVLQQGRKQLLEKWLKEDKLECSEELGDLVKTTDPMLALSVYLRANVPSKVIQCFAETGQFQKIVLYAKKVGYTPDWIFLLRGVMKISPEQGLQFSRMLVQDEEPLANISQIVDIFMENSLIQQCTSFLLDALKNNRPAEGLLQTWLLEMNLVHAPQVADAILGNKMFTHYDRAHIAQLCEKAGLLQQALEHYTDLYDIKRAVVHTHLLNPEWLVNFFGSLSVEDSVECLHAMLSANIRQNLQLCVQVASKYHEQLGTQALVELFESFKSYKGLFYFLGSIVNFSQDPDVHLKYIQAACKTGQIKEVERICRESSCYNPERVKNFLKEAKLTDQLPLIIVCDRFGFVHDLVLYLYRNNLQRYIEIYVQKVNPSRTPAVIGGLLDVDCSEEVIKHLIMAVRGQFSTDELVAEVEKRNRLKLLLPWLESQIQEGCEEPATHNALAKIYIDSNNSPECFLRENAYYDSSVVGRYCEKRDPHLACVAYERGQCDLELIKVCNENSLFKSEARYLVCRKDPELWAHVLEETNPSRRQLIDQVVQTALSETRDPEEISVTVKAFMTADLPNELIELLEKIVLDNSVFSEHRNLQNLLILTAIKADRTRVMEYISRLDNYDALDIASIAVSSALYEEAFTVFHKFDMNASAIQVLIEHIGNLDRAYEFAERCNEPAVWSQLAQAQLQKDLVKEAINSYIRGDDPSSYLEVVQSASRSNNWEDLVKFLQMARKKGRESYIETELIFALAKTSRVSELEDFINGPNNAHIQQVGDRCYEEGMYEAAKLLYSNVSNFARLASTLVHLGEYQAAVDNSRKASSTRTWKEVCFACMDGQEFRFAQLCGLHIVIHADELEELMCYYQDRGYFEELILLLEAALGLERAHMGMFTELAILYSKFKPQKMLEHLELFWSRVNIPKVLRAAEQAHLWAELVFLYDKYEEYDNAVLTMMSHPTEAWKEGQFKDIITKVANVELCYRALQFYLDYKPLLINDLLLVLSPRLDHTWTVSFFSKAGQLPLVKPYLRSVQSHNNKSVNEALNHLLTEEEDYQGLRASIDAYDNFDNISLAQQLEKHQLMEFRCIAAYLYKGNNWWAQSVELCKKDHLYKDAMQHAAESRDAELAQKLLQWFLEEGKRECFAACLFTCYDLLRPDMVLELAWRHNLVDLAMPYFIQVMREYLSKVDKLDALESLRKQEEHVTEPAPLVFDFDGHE
UniProt Q00610: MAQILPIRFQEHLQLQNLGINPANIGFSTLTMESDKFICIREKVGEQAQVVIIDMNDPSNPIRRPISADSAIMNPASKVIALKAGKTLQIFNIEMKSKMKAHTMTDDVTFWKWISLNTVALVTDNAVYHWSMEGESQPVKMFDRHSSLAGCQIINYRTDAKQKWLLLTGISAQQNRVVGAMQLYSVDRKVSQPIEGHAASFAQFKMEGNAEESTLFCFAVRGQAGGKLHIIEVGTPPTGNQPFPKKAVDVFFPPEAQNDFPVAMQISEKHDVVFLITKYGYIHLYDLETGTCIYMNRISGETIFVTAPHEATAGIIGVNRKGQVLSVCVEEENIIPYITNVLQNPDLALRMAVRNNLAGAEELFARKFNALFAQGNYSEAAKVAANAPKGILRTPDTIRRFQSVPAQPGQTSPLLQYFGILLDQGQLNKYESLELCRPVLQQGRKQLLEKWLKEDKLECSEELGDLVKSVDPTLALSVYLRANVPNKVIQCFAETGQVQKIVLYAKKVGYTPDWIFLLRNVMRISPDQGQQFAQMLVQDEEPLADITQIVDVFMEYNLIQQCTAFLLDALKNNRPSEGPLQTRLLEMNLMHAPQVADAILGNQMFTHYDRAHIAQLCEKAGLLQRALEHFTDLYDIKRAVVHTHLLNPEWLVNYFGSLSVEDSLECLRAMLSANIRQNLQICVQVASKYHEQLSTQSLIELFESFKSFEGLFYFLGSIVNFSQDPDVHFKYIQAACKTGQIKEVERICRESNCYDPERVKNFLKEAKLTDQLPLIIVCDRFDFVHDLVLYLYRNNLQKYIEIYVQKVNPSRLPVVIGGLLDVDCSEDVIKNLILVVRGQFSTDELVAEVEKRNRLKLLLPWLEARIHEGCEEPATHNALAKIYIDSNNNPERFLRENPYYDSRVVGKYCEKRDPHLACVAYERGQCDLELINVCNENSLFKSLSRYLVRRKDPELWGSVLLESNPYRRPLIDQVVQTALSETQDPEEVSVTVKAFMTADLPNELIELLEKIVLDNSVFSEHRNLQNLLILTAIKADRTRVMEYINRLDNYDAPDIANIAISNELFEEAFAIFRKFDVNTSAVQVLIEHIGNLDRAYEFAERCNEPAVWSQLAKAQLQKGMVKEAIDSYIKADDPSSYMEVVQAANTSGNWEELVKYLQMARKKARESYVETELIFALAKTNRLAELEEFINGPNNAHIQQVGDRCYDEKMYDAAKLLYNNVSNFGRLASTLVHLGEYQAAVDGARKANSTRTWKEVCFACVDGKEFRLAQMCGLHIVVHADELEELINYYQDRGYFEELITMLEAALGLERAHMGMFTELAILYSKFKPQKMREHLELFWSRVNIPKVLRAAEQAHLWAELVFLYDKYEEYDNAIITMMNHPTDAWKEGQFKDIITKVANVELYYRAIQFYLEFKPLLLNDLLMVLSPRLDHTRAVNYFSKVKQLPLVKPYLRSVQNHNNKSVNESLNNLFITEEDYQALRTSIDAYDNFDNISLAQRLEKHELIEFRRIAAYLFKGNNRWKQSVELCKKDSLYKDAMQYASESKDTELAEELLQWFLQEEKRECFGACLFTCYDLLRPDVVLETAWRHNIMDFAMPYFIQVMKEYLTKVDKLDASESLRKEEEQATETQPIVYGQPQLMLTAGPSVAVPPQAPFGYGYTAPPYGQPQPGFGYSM

binding	Molecule
binds	CLTCL1 (from UniProt P53675 1-1640)
binds	CLTC (from UniProt Q00610 1-1675)
binds	CLTA (protein, UniProt P09496 1-248) MAELDPFGAPAGAPGGPALGNGVAGAGEEDPAAAFLAQQESEIAGIENDEAFAILDGGAPGPQPHGEPPGGPDAVDGVMNGEYYQESNGPTDSYAAISQVDRLQSEPESIRKWREEQMERLEALDANSRKQEAEWKEKAIKELEEWYARQDEQLQKTKANNRVADEAFYKQPFADVIGYVTNINHPCYSLEQAAEEAFVNDIDESSPGTEWERVARLCDFNPKSSKQAKDVSRMRSVLISLKQAPLVH
binds	PICALM (protein, UniProt Q13492 1-652) MSGQSLTDRITAAQHSVTGSAVSKTVCKATTHEIMGPKKKHLDYLIQCTNEMNVNIPQLADSLFERTTNSSWVVVFKSLITTHHLMVYGNERFIQYLASRNTLFNLSNFLDKSGLQGYDMSTFIRRYSRYLNEKAVSYRQVAFDFTKVKRGADGVMRTMNTEKLLKTVPIIQNQMDALLDFNVNSNELTNGVINAAFMLLFKDAIRLFAAYNEGIINLLEKYFDMKKNQCKEGLDIYKKFLTRMTRISEFLKVAEQVGIDRGDIPDLSQAPSSLLDALEQHLASLEGKKIKDSTAASRATTLSNAVSSLASTGLSLTKVDEREKQAALEEEQARLKALKEQRLKELAKKPHTSLTTAASPVSTSAGGIMTAPAIDIFSTPSSSNSTSKLPNDLLDLQQPTFHPSVHPMSTASQVASTWGDPFSATVDAVDDAIPSLNPFLTKSSGDVHLSISSDVSTFTTRTPTHEMFVGFTPSPVAQPHPSAGLNVDFESVFGNKSTNVIVDSGGFDELGGLLKPTVASQNQNLPVAKLPPSKLVSDDLDSSLANLVGNLGIGNGTTKNDVNWSQPGEKKLTGGSNWQPKVAPTTAWNAATMAPPVMAYPATTPTGMIGYGIPPQMGSVPVMTQPTLIYSQPVMRPPNPFGPVSGAQIQFM
